# According to the supplement of paper PMC5949888:
# Most values lie at the floor of the assay. Slopes are relative: functional sequences can read slightly below zero.
# System: Saccharomyces cerevisiae PS128 hsf1 delta, HSF1(1-493) fusion
# Experiment: growth estimate (transactivation domain function in HSF1 fusion, heat-shock survival) (a.u. (slope of normalised read count over time)); higher = stronger growth at 37°C, i.e. more transactivation activity
# Conditions: library: random library
row,Substance,growth estimate
1,FKCACMIEVAADMGKAFVPP,< -0.25
2,VCFLMGIGASDIAGPSFRIS,< -0.25
3,PVRSTAASKWGP,< -0.25
4,CMNAHNYEGLYVGKFEPSAS,< -0.25
5,SRVVLQGPWFNVVPRWWFPQ,< -0.25
6,PWGSHMFSNIGLSRAIGA,-0.243
7,INRALPHSGTRLRVKAPTWE,< -0.25
8,GRIGP,< -0.25
9,PYLQAGNRAFRPLHEVHMQS,< -0.25
10,CRFSC,< -0.25
11,RFAVGLRAATRQISVEQG,< -0.25
12,GRTPQRLALVVRVRFWKARV,-0.231
13,GTVPVIAFRRSCGKDY,< -0.25
14,RYGKGAVPILFCEVYLTATR,< -0.25
15,LYILNKGILGVSEASLSART,-0.246
16,GHCVEWFLNPFCIDYLKYAP,< -0.25
17,DLMQGLPFMNRRAKIVRGNG,< -0.25
18,ITSGAKSGFAGLAYSYSSKP,< -0.25
19,SCASVWCPRE,< -0.25
20,LYRL,-0.229
21,TLVV,< -0.25
22,PSCTGILPAVRPLRPARSPL,< -0.25
23,CKARWHVLCTEDSGQPKRRL,< -0.25
24,RCGCRSESRRQRGALLP,< -0.25
25,LIFSRANVCAWPRFSYASRS,< -0.25

row,Substance,growth estimate
1,DISHILFAAGSIYRRTTPGS,< -0.25
2,GLLRECHFKGVRKESGRLTT,-0.249
3,LLRCRCSVETKTRDYRPLAR,< -0.25
4,NVLQPNRGYQHCV,< -0.25
5,KLHRVGNLNHATDVGT,-0.244
6,RDAARPNVTVPGALPPTYWA,< -0.25
7,REDHVT,< -0.25
8,KAIHPVGLRLGINHQSQGGS,< -0.25
9,RESTVYTEFVQYVIGSVHRG,< -0.25
10,IRLRGLGL,< -0.25
11,IWSTINPVERYETESVEEA,< -0.25
12,ERVQPPTFVGNNVTEDVRAL,< -0.25
13,LSYGGF,< -0.25
14,ARYIRLPSELLNRVPRHA,< -0.25
15,HVFWASR,< -0.25
16,GKRRCPRRELQFHGGYPRLK,< -0.25
17,TCITL,< -0.25
18,FVYRLEMCL,< -0.25
19,WLGSSVQHVIRPHRGAQSLT,-0.2
20,FESVRPSGVLSDLGQAGVFV,-0.231
21,ALSELICPDKLTSRRVGL,< -0.25
22,TQLELDAYWRTSIASP,< -0.25
23,EVVLIVQNDDSSTLRWIRIA,-0.248
24,AQTTGTIRDSDTQPWLDRRL,< -0.25
25,WITEIFHSGSADQHIPWVSR,< -0.25

# A second format for some results above:
row | Substance | growth estimate
13 | GTVPVIAFRRSCGKDY | < -0.25
4 | NVLQPNRGYQHCV | < -0.25

# Remaining list, next part

row,Substance,growth estimate
1,SGISSAPRPSRCRNLASIIT,< -0.25
2,KVRSAPRIHGSSFLSVAVSS,< -0.25
3,MGIEA,< -0.25
4,DHQQHTQITDGICSCDKGRA,< -0.25
5,SWHVPV,< -0.25
6,EDSELRMHSAPNHSIPGAFS,< -0.25
7,KAVCRDSYVRPSGMSSYLSP,< -0.25
8,LDTLSTRVSCHF,< -0.25
9,PSDSHRFAVVGQHAYNWSCG,< -0.25
10,QRSDMVKLGWISVPEDGVHV,< -0.25
11,GVQC,< -0.25
12,TGEPAWQTGAIALSRLRTVY,< -0.25
13,VSIR,< -0.25
14,KSTTSVSQLSCVRAKVIAPK,< -0.25
15,SRSEAPPAF,< -0.25
16,LVFITESSLRQVGHSV,< -0.25
17,RVNIRAYHRFLSVGSYVHRA,< -0.25
18,SQAMHIC,< -0.25
19,RADMIA,< -0.25
20,HHVRLSRARVRQTPGRLYTS,< -0.25
21,KVILVAFCNERCVRSIHLYR,-0.216
22,VIGHGAPYGILQQCPAVYTI,< -0.25
23,LMEGEAWGRGNHWYIVPGCH,< -0.25
24,DQHTQEPKVNISRKHRTGLA,< -0.25
25,TLARETQFDLSK,< -0.25

# Rewritten as tab-separated lines: entries from further up
row	Substance	growth estimate
5	SWHVPV	< -0.25
6	EDSELRMHSAPNHSIPGAFS	< -0.25
7	KAVCRDSYVRPSGMSSYLSP	< -0.25
8	LDTLSTRVSCHF	< -0.25

# (listing goes on)

row,Substance,growth estimate
1,LPVFRLFDGLSPLGRPGKVV,< -0.25
2,SYSLNCRVVLSLRVSRPEIV,< -0.25
3,HLLFHEPTGKPQQHARDCML,< -0.25
4,IPL,< -0.25
5,LQKSWRFRWRGGGGGTQP,< -0.25
6,LKIFGEHLFRVPRP,< -0.25
7,RLGLRSRRLVKCHGSSATAS,< -0.25
8,VGSCGLSCFGLSSERRFVRY,< -0.25
9,ATCVDWKSSLQGVEKCHQ,< -0.25
10,TPFKVSLLVSEPCRVRGFTV,< -0.25
11,KSAPRMISSWA,< -0.25
12,MRYTVVRSNF,< -0.25
13,HRIVTFAIT,< -0.25
14,VRRGCNLD,< -0.25
15,KGVRAGA,< -0.25
16,SILEQIVRIRSGGKMKREAP,< -0.25
17,PGSAPDRLEILIAGWGS,< -0.25
18,PSGIRSCS,< -0.25
19,CGALPQRSEN,< -0.25
20,GGFLPPDV,< -0.25
21,YEHRRVFAVDSFRRTNSLPP,< -0.25
22,VLTGKSLEPTKTAEQALGT,< -0.25
23,SGVWWQQ,< -0.25
24,VLGPKVIWLGSTLFIREDMS,< -0.25
25,KRNCRYNGPS,< -0.25

# Individual results from the list:
# Entry for CGALPQRSEN under growth estimate: < -0.25
# Entry for VRRGCNLD under growth estimate: < -0.25
# Entry for VLTGKSLEPTKTAEQALGT under growth estimate: < -0.25
# Entry for LPVFRLFDGLSPLGRPGKVV under growth estimate: < -0.25
# Entry for IPL under growth estimate: < -0.25

# Continuation:

row,Substance,growth estimate
1,TRVLLIMYGRGLTDSYDVTH,< -0.25
2,GHYSRAYPGSRTPGIYYYIQ,< -0.25
3,PYLCLVSRDRTCNWLSYLSV,< -0.25
4,ELDQVRH,< -0.25
5,VGLSDFDRLCRVTRAQHVVQ,-0.204
6,RDRSSRVQVVSPNKTVRRSL,< -0.25
7,GIIRRVTLSGSVWHCGWESA,< -0.25
8,RGARFAVPRCLAYGLIAPNT,< -0.25
9,YEWYLRSFGLRYG,< -0.25
10,YRDN,< -0.25
11,GMCWDCGTGLSASDRFSKRR,< -0.25
12,KRLRSEPTSR,< -0.25
13,KQCSAKLLMHMVGFASLMGF,< -0.25
14,VGLC,< -0.25
15,RGCITT,< -0.25
16,RFTRNGCLSYTRASLPCVCS,< -0.25
17,ESRPYEAVWAFRPLEHSCLG,< -0.25
18,DRLGR,< -0.25
19,VRQTCMRHWVRLQSVGNRAW,< -0.25
20,PEYDWQTPDRDSGGSQDLVR,< -0.25
21,SKISDTERSNAPSIRRLT,< -0.25
22,CHYSTDLPTL,< -0.25
23,NGYQVQPRNELRRDLGISSR,< -0.25
24,HYMPKFDRLRLL,< -0.25
25,RSYFSSRWFRMIRARSTKIA,< -0.25

row,Substance,growth estimate
1,SSRTQ,< -0.25
2,LMLAVGVVKHWSRVRLGR,< -0.25
3,CVMSPLERHSQPDKSSQSAD,< -0.25
4,PFVATCIKSNRVQMNKVTYL,-0.237
5,DVSFCGVDGGQG,< -0.25
6,VLEVSWNTWKIFGLSR,< -0.25
7,SWRACNCGL,< -0.25
8,ENVPDDLPRLRLVLRKT,< -0.25
9,SWGSLQTACL,-0.241
10,GHMQREDMKNRK,< -0.25
11,VMAVHGLGAA,< -0.25
12,LPGNLLQ,< -0.25
13,SLKAYGMTGGIRRMAH,< -0.25
14,QQRRPDSRDENPRFSVVTLL,< -0.25
15,RAWASTTAIGRRSWIIG,< -0.25
16,SHHKGLYADVLSKRAQDAVP,< -0.25
17,CDVDGF,< -0.25
18,GIGHIFLYIDKL,< -0.25
19,YEPLVIR,< -0.25
20,FRLKNLCSNGTVRFIGNSLD,< -0.25
21,CAEGRWGVGWGGRRRLLHS,< -0.25
22,KVVQLAQCVNYRTSFRGALG,< -0.25
23,VAGSIQVLAT,< -0.25
24,SCVHRRSTQLTHWKLWSGAM,< -0.25
25,SDPIS,-0.219

row,Substance,growth estimate
1,SMHLDYMRVGELLSHRGTGL,< -0.25
2,YVRLEQMPEQLRSH,< -0.25
3,PFGE,< -0.25
4,YGDRDVDSRN,< -0.25
5,SLNGPCLVLSRGKNSIVTRH,< -0.25
6,SKHG,< -0.25
7,GAVMLILNLC,< -0.25
8,QTNRGPAYAGPAP,< -0.25
9,KGVDHHCQRSPSAKPGPGNV,< -0.25
10,PKVGKLQPGGYVGHHNRGLV,< -0.25
11,ESPV,< -0.25
12,RGHGAVYCPPARAEGLSTTS,< -0.25
13,VQDSQASRIENNERRHLQSY,< -0.25
14,DNRLRLNRTLKKFERIPIHM,< -0.25
15,WGPHVAGLQRSPRGAMVDCN,< -0.25
16,YLRIPSITLSQPQLASSLSV,< -0.25
17,VANPWVGAGVHVSNYSGDKS,< -0.25
18,LKTVLSLV,< -0.25
19,HRSVISTQL,-0.0616
20,WQSY,< -0.25
21,YVEKHHNGTCLYMVRFLLTI,< -0.25
22,GCGANVGNDGNRLRRRQCFS,< -0.25
23,SILYQVQ,< -0.25
24,LTSARTTVTLRIKKRRDSQS,< -0.25
25,LRKALELVEQVVFTSRCQRA,-0.0565

row,Substance,growth estimate
1,MPEDDLV,< -0.25
2,RDGN,< -0.25
3,RLPRLQTGTDLEKRWFPHSA,< -0.25
4,LQLAPRGKSIYS,< -0.25
5,TFDVATTPHRDTVDYYLEVE,< -0.25
6,MTGASPSKYMPEQRWP,< -0.25
7,KCKLIGGRSSCSWTKPRCAY,< -0.25
8,EMSDLATWC,< -0.25
9,CAEVVSADGYCAMLGRCPQT,< -0.25
10,ISS,-0.246
11,AFICLAISMLRLGPWIGKRG,< -0.25
12,DRCFGKAFMF,< -0.25
13,AQILNEENERCVGSVSSRLW,< -0.25
14,VGVSPGEARQQGCFVVPRSA,< -0.25
15,QIVDRVSYARKETISTGDVS,< -0.25
16,WAVGR,< -0.25
17,GCVMWISRVWQYRRWYRVNS,< -0.25
18,KSTLAGRPFGSKR,< -0.25
19,CRPVVTSRHETMRC,< -0.25
20,ILVAGILP,< -0.25
21,KYYLADLR,< -0.25
